Measurements: the supplement of paper PMC10849652
The list shows a part of the results.

Amino acid sequences for entries named in this document (tags omitted). A change or cut given only in a name is not applied to a line headed by its entry.
UniProt Q6P1Q0: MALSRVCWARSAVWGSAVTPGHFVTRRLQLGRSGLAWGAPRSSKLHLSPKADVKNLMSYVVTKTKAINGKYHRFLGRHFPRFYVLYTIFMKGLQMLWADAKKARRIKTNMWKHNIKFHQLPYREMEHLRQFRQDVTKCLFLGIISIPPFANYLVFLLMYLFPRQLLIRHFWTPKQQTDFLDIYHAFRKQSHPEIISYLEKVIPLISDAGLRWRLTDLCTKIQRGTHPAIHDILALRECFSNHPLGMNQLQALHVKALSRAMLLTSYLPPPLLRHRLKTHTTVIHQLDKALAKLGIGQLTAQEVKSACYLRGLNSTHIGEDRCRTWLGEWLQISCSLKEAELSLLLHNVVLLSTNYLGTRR
UniProt Q03252: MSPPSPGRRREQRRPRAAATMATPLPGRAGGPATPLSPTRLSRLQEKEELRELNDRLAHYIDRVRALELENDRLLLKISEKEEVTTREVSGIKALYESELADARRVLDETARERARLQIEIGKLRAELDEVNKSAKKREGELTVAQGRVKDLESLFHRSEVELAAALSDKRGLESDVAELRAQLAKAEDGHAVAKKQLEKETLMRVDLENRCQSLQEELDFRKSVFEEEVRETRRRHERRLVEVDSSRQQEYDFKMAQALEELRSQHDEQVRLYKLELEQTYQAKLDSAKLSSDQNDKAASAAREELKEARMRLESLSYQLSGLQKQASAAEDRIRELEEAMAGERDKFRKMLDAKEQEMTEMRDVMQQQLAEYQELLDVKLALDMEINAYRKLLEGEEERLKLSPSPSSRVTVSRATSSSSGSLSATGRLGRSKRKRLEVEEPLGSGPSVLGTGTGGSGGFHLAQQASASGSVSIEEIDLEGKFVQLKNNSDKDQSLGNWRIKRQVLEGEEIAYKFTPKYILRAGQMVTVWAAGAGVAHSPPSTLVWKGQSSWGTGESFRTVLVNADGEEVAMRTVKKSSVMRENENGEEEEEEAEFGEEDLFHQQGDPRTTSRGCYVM
UniProt Q6UWP7: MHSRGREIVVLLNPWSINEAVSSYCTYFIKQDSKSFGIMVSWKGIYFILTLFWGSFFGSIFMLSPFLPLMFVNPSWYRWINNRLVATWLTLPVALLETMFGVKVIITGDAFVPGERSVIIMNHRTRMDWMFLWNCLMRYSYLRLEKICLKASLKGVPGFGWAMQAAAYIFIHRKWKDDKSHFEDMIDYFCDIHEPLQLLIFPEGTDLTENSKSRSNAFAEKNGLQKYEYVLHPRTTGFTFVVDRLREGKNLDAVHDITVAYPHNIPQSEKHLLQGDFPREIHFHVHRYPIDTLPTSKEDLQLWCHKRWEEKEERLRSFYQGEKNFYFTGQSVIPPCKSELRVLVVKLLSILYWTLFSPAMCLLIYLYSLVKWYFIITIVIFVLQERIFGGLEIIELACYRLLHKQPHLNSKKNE
UniProt Q6P9F7: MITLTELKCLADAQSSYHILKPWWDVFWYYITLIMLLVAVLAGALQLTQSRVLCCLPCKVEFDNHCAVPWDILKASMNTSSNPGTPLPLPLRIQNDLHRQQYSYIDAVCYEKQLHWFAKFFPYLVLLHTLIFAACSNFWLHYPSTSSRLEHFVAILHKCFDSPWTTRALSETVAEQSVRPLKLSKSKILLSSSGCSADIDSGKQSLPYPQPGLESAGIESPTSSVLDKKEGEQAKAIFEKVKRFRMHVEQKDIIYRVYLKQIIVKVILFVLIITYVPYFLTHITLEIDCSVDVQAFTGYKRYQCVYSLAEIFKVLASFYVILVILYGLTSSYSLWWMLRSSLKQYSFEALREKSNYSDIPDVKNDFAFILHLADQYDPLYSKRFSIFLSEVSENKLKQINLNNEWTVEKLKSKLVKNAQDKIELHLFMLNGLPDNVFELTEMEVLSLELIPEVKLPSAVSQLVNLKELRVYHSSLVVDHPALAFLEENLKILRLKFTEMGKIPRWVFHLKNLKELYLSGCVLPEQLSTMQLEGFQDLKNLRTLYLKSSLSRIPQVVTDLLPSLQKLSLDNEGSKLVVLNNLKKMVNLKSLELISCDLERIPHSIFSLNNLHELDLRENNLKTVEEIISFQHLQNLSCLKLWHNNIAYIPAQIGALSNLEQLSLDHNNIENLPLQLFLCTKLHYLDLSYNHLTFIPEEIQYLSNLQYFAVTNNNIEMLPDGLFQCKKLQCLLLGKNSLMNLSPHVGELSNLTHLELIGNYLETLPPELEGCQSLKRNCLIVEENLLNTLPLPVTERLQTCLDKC
UniProt P25791: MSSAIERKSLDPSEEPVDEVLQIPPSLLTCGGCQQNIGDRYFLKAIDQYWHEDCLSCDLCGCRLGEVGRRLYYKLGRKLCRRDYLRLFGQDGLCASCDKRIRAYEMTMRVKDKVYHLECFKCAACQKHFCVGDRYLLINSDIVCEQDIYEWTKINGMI
UniProt Q8TDW0: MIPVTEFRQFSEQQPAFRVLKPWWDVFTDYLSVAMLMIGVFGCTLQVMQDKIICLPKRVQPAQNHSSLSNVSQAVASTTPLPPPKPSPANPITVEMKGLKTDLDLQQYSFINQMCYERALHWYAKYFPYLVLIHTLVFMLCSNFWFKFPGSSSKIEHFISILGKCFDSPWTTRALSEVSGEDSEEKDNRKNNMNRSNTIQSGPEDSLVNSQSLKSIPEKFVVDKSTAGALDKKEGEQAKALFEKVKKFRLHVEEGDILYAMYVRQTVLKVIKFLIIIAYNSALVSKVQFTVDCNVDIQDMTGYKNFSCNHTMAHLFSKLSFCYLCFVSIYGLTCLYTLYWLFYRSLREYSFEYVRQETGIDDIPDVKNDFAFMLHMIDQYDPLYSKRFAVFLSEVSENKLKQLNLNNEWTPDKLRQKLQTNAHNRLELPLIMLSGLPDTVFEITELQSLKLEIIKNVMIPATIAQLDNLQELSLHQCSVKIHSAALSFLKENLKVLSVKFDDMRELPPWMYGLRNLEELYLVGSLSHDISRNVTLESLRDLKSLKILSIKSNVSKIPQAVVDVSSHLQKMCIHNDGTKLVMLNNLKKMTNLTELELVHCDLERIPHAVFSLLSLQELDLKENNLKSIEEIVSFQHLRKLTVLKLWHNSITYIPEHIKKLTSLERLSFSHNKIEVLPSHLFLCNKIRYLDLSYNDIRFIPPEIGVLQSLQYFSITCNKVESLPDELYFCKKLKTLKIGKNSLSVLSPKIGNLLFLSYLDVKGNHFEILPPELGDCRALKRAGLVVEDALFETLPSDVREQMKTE
UniProt O00214: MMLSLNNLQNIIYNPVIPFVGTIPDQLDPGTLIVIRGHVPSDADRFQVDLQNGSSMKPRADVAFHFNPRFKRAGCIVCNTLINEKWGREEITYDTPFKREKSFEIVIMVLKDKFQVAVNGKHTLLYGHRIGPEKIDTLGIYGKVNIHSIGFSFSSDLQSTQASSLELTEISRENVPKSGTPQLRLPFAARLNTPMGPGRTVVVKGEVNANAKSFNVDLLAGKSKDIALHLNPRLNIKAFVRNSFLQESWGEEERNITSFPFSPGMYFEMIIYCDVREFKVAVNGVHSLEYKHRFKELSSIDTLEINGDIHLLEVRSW
UniProt Q9NUP9: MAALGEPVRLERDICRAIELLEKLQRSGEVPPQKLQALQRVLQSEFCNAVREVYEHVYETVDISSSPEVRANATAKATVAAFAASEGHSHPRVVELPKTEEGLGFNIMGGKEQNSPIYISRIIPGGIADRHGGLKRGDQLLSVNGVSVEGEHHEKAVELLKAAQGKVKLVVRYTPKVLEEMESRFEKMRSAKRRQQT
UniProt Q9UHB6: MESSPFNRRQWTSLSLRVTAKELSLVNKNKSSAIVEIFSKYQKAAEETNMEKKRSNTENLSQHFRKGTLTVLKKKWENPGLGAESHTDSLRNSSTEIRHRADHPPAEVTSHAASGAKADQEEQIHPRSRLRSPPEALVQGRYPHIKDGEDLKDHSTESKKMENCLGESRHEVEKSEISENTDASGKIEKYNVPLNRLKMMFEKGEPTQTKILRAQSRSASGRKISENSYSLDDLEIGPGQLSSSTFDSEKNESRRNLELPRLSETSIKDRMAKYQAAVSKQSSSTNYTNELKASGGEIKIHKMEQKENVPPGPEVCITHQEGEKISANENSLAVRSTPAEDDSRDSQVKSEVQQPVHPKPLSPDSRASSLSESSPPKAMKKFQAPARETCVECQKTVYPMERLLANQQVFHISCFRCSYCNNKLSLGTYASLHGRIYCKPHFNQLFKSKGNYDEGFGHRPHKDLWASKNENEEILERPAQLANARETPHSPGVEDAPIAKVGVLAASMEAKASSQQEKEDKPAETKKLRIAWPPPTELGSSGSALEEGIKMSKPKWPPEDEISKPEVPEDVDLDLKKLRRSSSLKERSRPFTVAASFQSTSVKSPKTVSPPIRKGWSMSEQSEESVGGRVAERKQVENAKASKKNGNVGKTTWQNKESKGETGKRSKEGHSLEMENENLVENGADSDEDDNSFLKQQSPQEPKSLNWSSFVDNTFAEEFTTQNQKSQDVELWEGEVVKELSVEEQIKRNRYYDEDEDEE
UniProt Q8N9N7: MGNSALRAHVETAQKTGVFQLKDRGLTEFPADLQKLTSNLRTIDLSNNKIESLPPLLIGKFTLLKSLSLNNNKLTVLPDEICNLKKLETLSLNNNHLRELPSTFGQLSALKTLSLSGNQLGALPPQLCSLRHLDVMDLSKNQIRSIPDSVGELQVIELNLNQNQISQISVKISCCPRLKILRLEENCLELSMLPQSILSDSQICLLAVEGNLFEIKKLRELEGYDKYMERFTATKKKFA
UniProt P49257: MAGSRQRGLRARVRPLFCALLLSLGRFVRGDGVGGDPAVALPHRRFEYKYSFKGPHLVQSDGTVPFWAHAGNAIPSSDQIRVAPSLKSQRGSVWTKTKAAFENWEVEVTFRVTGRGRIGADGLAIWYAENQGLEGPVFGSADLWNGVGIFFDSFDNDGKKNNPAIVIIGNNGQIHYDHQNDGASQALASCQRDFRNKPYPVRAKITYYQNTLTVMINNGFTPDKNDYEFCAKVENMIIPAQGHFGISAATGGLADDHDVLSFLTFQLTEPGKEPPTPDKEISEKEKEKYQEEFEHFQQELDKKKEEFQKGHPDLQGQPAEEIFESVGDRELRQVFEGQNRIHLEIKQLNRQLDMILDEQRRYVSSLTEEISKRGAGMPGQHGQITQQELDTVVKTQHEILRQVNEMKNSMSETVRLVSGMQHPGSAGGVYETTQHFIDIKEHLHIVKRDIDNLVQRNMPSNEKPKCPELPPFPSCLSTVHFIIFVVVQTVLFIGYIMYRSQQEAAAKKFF
UniProt P20700: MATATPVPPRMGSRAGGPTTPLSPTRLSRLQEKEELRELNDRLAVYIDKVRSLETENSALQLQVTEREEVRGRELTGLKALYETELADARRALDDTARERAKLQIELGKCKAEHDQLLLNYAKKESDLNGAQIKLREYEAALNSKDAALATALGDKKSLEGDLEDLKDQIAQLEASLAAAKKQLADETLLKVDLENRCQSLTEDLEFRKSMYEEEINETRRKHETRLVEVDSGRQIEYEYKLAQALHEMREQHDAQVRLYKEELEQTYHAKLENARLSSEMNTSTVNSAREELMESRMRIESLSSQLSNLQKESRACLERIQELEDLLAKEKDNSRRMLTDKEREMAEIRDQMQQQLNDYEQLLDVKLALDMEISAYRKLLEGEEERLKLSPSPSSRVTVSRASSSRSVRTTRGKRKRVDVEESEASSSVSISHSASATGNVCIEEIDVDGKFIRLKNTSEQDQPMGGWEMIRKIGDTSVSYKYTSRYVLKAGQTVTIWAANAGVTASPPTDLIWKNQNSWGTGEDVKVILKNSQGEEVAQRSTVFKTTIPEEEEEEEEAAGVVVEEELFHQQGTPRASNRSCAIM
UniProt Q9Y333: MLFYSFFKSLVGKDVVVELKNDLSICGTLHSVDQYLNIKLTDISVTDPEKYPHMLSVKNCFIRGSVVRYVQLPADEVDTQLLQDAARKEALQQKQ
UniProt Q96AG4: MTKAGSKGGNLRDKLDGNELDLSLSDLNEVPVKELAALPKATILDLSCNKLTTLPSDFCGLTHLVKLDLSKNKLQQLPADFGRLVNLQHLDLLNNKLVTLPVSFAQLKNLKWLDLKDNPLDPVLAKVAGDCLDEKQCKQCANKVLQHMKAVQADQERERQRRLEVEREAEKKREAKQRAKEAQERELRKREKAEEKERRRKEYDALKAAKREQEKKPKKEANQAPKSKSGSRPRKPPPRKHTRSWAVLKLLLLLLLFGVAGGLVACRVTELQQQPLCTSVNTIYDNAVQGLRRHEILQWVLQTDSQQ
UniProt Q9C0E8: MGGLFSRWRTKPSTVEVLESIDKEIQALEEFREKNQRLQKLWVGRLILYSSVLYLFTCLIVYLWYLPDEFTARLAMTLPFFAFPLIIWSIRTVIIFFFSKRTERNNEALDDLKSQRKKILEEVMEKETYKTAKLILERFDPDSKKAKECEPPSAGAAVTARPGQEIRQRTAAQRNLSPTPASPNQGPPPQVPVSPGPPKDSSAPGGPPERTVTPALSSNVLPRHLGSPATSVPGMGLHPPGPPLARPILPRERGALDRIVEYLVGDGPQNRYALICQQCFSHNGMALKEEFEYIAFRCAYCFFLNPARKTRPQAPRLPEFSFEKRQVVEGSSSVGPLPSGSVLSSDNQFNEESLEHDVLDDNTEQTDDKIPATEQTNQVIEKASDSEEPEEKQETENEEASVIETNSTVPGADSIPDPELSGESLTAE

compound: Cn1cc(-c2ccc3c(c2)CCN3C(=O)Cc2cccc(C(F)(F)F)c2)c2c(N)ncnc21; assay: log2 fold change, soluble protein after heating vs DMSO (PISA); higher = thermal stabilisation; K562 lysate, 10 uM; active = over 0.2 and 3.5 SD of the protein, either way, in both replicates (recomputed)
Procedure, shortened: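 Values give the log-two fold change in thermal stability against solvent controls, from duplicates. Crude K562 extract at 1 mg/mL protein, made by dounce homogenisation in PBS pH 7.4 with 1 mM MgCl2, was treated with 10 μM compound for 30 min. After 3 min heating across 48°C-58°C, aliquots were pooled, adjusted to 0.5% NP-40 at 4°C and centrifuged at 21,000xg for 90 min. The supernatant was measured by TMTpro 16plex LC-MS/MS with channel sums equalised.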

log2 fold change, inactive:
LRPPRC (UniProt P42704) 0.056
LETMD1 isoform 7 (UniProt Q6P1Q0) 0.005
LARS2 (UniProt Q15031) 0.065
LMNB2 (UniProt Q03252) 0.073
LCLAT1 (UniProt Q6UWP7) -0.072
LEO1 (UniProt Q8WVC0) -0.002
LCMT2 (UniProt O60294) 0.138
LRRC8B (UniProt Q6P9F7) -0.002
LCMT1 (UniProt Q9UIC8) 0.051
LRBA, A0A494BZW2 0.037
LMO2 isoform 3 (UniProt P25791) -0.154
LRRC8C (UniProt Q8TDW0) -0.063
LDAH isoform 2 (UniProt Q9H6V9) 0.017
LMAN2L isoform 2 (UniProt Q9H0V9) -0.023
LRCH4 (UniProt O75427) 0.041
LCP2 (UniProt Q13094) 0.004
LAS1L (UniProt Q9Y4W2) -0.019
LRWD1 (UniProt Q9UFC0) 0.02
LSM14B isoform 2 (UniProt Q9BX40) 0.029
LGALS8 isoform 2 (UniProt O00214) -0.011
LIMD1 (UniProt Q9UGP4) -0.03
LDHA isoform 3 (UniProt P00338) -0.024
LIN7C (UniProt Q9NUP9) 0
LRRC8D (UniProt Q7L1W4) 0.018
LIMA1 isoform 4 (UniProt Q9UHB6) 0.007
LRRC57 (UniProt Q8N9N7) -0.004
LMAN1 (UniProt P49257) 0.041
LMNB1 (UniProt P20700) 0.028
LSM2 (UniProt Q9Y333) 0.004
LINS1 (UniProt Q8NG48) -0.138
LIG1 (UniProt P18858) 0.037
LMBRD1 (UniProt Q9NUN5) 0.015
LRRCC1 (UniProt Q9C099) -0.025
LRCH3 (UniProt Q96II8) 0.038
LIG4 (UniProt P49917) -0.026
LRRC59 (UniProt Q96AG4) -0.036
LSR (UniProt Q86X29) -0.005
LIN9 isoform 2 (UniProt Q5TKA1) 0.029
LNPK (UniProt Q9C0E8) 0.035

A run of entries from further up, as a working copy:
log2 fold change, inactive:
LCLAT1 (UniProt Q6UWP7) -0.072
LEO1 (UniProt Q8WVC0) -0.002
LCMT2 (UniProt O60294) 0.138
